23 sequences from publication PMC7819943, “Rice protein-binding microarrays: a tool to detect cis-acting elements near promoter regions in rice” can be followed below.

By UniProt entry, the sequences of proteins in these tests, tags left out.
UniProt Q0JBA9, entry or part of it: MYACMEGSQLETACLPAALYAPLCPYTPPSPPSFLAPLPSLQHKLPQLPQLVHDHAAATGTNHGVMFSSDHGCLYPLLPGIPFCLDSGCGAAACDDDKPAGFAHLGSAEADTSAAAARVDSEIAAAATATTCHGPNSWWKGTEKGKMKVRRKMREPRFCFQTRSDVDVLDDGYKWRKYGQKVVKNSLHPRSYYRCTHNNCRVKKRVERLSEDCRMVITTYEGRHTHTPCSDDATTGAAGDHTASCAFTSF

The list shows a part of the results.

The target of the experiment is OsWRKY34 (Oryza sativa, UniProt Q0JBA9 1-250). As to the kind of experiment: protein-binding microarray (RPBM); PBS, 2% BSA, 51.3 ng/ul salmon testes DNA, 50 uM zinc acetate, 200 nM TF, 25 C, 1 h; high values mean tight binding. The conditions noted are these: protein: recombinant; tags: N-terminal polyhistidine and DsRed monomer fusion (pET32a); label: CyDye5-dUTP incorporated in the synthesized complementary strand; 3' TTTTT single-stranded linker to array surface; dsDNA, one strand shown. The gist of the method: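 Transcription factors were made in E. coli BL21-CodonPlus as N-terminal fusions to a polyhistidine tag and DsRed, then purified on Ni–NTA. After primer extension with Cy5-dUTP and blocking with 2% BSA, a custom Agilent array was exposed for 1 h at 25 °C to 200 nM protein in PBS, 2% BSA, salmon testes DNA and 50 µM zinc acetate. Washed arrays were scanned on an Axon 4000B, and the binding signal is per-feature fluorescence intensity in arbitrary units.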
Consider “GCTGCCCCGCGCGCGCCAGGCGCCACCCTCGTCTCGTCGTCGGAGTCACCTAGTGCAG”, for which the binding signal is 8810 fluorescence intensity (a.u.).

With “TGTTGTGCTTGCTGATGTGTTGGAAATTCCACCCTTTTGTCGGAGTCACCTAGTGCAG”, the binding signal was 8490 fluorescence intensity (a.u.).

Take “TTCATTCCTTTAGCCATGCTGCTGCGTTTATTTTGCCACTCGGAGTCACCTAGTGCAG”: the binding signal was 10400 fluorescence intensity (a.u.).

As to “TACTCGCGCCCACGGCTTTCACTCGCTCCGTCGGTTAAAACGGAGTCACCTAGTGCAG”, the binding signal is 8670 fluorescence intensity (a.u.).

For the sequence “CCCTTGGCCTATATACTCTCTCTCTCTCTTCTCGCCCCACCGGAGTCACCTAGTGCAG”, the binding signal is 8620 fluorescence intensity (a.u.).

Turning to “AAATGGTCTAACACTTGATGATGTTTCACTTCCCCAGTATCGGAGTCACCTAGTGCAG”, the binding signal was 10600 fluorescence intensity (a.u.).

For “TACAACTGAGTTCATTTCGCCGTCAATTCGCATCAATTTTCGGAGTCACCTAGTGCAG”, the binding signal is 8610 fluorescence intensity (a.u.).

Regarding “CCCGTTCTTTCTGTATGATGATCAATTTTTTAGACTAAACCGGAGTCACCTAGTGCAG”, the binding signal is 8720 fluorescence intensity (a.u.).

Take “CTGTTTTTTTTTTCTTTTTTTTCTTTTTTTCTTTTTTCTACGGAGTCACCTAGTGCAG”: the binding signal was 9590 fluorescence intensity (a.u.).

Regarding “CTTCGCTTCGCTGGCCCTCTGCTTTGTTCTTGACCCTTGGCGGAGTCACCTAGTGCAG”, the binding signal was 9420 fluorescence intensity (a.u.).

With “GTTTCACAATGTAAGTCATTCTAGCATTTTTCACATTCATCGGAGTCACCTAGTGCAG”, the binding signal is 9340 fluorescence intensity (a.u.).

Turning to “GTACCCATAATCTCCACAAGTCTTTATCTCTCCTCAAATTCGGAGTCACCTAGTGCAG”, the binding signal was 8360 fluorescence intensity (a.u.).

With “TTGTGCATGTGTGGGAAGTGGTACTCTTTTTCTTAGCATTCGGAGTCACCTAGTGCAG”, the binding signal is 8810 fluorescence intensity (a.u.).

For the sequence “TCGTCGTCGACTCGTCGTGGCCGCCGGCAACTCACGCCCACGGAGTCACCTAGTGCAG”, the binding signal is 8150 fluorescence intensity (a.u.).

In the case of “CTGCTACAATCGCCATAATTCTCTAGTTTCGTACACCTGACGGAGTCACCTAGTGCAG”, the binding signal is 8320 fluorescence intensity (a.u.).

As for “AGATCCACCATGCCACCACCTGCTGCTCCAAGCCGTCGTTCGGAGTCACCTAGTGCAG”, the binding signal was 8360 fluorescence intensity (a.u.).

For the sequence “TCTCTCTCTTCTTCGCGTCGATTTCGTGCACTTCAGTTTCCGGAGTCACCTAGTGCAG”, the binding signal is 14500 fluorescence intensity (a.u.).

As to “CAGTTTGGGAGGGCTGATACTGCATGCAGTCATCAAAATACGGAGTCACCTAGTGCAG”, the binding signal was 10600 fluorescence intensity (a.u.).

As for “GTTGTCTCATGTCTAGCCTAGATCTGTACTTATGAATTTTCGGAGTCACCTAGTGCAG”, the binding signal is 11500 fluorescence intensity (a.u.).

As to “CGTCCGTGCCGTCGATGATGCCTGTGGAGTGGTGATCCCGCGGAGTCACCTAGTGCAG”, the binding signal was 8520 fluorescence intensity (a.u.).

For the sequence “CTTCCGTTCTTCTCTTGTTTACCATATAAGGGCATGTACACGGAGTCACCTAGTGCAG”, the binding signal is 11300 fluorescence intensity (a.u.).

As to “ATTTTCTTTTGCTCAGTTCGACACATAGACATCTGAGGCTCGGAGTCACCTAGTGCAG”, the binding signal is 8030 fluorescence intensity (a.u.).

With “AGGGGAGAGAAAGAGAGAGGAGGGAGGGAGGGAGGAGGAACGGAGTCACCTAGTGCAG”, the binding signal was 10800 fluorescence intensity (a.u.).
